In patent US20230312724A1:
No constants are given. Whether binding was seen depends on the method and setting. Some binding calls cover weakened binding; strength is not graded here.

Chains of the proteins cited; added tags and fusions are not shown. Lines headed by an entry give the natural chain unless they say otherwise; changes in a name come on top.
UniProt Q7Z7D3: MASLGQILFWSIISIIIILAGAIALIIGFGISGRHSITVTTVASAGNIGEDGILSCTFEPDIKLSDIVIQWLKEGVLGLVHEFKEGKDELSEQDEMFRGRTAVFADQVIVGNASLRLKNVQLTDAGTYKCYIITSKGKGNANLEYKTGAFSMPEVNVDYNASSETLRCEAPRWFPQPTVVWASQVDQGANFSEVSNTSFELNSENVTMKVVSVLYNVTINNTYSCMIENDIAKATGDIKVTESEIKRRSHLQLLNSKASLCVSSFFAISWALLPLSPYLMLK
UniProt Q7TSP5: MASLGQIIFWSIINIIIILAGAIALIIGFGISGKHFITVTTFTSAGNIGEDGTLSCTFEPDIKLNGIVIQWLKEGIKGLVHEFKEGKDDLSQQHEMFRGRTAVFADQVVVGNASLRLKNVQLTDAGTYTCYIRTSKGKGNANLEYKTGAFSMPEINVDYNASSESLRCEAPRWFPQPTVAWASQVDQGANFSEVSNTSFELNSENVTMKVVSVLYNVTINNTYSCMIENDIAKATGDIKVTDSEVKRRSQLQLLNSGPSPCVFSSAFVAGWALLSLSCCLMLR

Columns and labels:
[1] = biological target: human B7-H4-his (human) (UniProt Q7Z7D3); experiment: ELISA (FIG. 30C)
[2] = biological target: human B7-H4-his (human) (UniProt Q7Z7D3); experiment: ELISA on coated human B7-H4his
[3] = biological target: mouse B7-H4-his (mouse) (UniProt Q7TSP5); experiment: ELISA on coated mouse B7-H4his
[4] = biological target: human B7-H4-Fc (human); experiment: ELISA on coated human B7-H4Fc
[5] = biological target: human B7-H4-Fc (human); experiment: ELISA (FIG. 30A)
[6] = biological target: mouse B7-H4-his (mouse) (UniProt Q7TSP5); experiment: ELISA (FIG. 30D)
[7] = biological target: human B7-H4-his (human) (UniProt Q7Z7D3); experiment: ELISA on coated hB7-H4-his
[8] = biological target: IgV domain of human B7-H4-Fc (human); experiment: ELISA on coated IgV domain of hB7-H4
[9] = biological target: human B7-H4-Fc (human); experiment: ELISA on coated hB7-H4-Fc
[10] = biological target: IgV domain of mouse B7-H4-Fc (mouse; human); experiment: ELISA on coated IgV domain of mB7-H4
[11] = biological target: mouse B7-H4-his (mouse) (UniProt Q7TSP5); experiment: ELISA on coated mB7-H4-his
[12] = biological target: IgV domain of human B7-H4-Fc (human); experiment: ELISA and SPR (FIG. 22, Table 14)
[13] = biological target: IgV domain of mouse B7-H4-Fc (mouse; human); experiment: ELISA and SPR (FIG. 22, Table 14)

Measured: binding

39A11/57G8-IL15-LS (from UniProt P0DOX5 1-449; P0DOX7 1-214)
binds: [1] | [2] | [3] | [4] | [5] | [6]

39A11/57G8-IL15 (from UniProt P0DOX5 1-449; P0DOX7 1-214)
binds: all assays above
